From patent US20240218377
Results from cells or extracts need not show a direct contact. Negatives hold for the conditions tested.

By UniProt entry, the sequences of proteins in these tests, tags left out. Residues count along the entry.
UniProt P16070, 21-742: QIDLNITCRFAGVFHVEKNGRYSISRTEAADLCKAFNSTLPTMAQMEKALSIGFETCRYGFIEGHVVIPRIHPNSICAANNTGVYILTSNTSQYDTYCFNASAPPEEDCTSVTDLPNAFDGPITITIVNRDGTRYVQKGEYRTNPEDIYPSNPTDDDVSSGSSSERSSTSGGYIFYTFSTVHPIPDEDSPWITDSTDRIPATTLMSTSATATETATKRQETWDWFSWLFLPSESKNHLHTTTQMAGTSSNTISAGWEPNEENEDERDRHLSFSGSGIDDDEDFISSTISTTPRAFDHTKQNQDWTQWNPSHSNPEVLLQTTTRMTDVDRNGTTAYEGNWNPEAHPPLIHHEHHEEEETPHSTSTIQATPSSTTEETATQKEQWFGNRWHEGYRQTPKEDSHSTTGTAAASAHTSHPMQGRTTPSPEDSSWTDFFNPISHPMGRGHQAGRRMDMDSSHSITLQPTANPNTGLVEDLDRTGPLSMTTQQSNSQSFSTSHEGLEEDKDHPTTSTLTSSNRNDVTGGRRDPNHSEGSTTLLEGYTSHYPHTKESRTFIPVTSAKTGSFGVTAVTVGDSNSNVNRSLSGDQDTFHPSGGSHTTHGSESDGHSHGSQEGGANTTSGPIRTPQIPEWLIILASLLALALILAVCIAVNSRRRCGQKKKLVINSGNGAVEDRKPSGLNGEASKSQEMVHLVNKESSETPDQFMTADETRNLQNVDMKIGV
UniProt P16422, 24-314: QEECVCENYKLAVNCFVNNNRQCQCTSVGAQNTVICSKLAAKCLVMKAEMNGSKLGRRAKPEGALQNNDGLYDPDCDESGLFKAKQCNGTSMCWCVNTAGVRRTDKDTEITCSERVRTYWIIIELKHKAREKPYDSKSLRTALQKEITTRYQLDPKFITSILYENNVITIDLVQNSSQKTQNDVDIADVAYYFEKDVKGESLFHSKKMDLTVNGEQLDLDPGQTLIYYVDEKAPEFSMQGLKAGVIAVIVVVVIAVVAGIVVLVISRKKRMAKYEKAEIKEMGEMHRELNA

Experiments:
[1] = target: CD44 (on OVCAR8 ovarian cancer cells) (Homo sapiens) (UniProt P16070); assay: flow cytometry; settings: protein on the cell surface
[2] = target: EpCAM (on OVCAR8 ovarian cancer cells) (Homo sapiens) (UniProt P16422); assay: flow cytometry; settings: protein on the cell surface
[3] = 2'-F, 1 uM Cy5-MG used as negative control on OVCAR8 cells, label: 3'-Cy5

Row | Sequence | binding result ([1]; 2'-F pyrimidines throughout, 1 uM aptamer, TBS, 5% BSA, tRNA, sperm DNA, 37 C, binding reduced on CD44 siRNA knockdown and nearly lost on CD44 plus EpCAM double knockdown, label: 3'-Cy5 on EpCAM strand, variant of bispecific CD44-EpCAM aptamer) | binding result ([2]; 2'-F pyrimidines throughout, 1 uM aptamer, TBS, 5% BSA, tRNA, sperm DNA, 37 C, binding reduced on EpCAM siRNA knockdown and nearly lost on double knockdown, label: 3'-Cy5 on EpCAM strand, variant of bispecific CD44-EpCAM aptamer) | binding result [1, 3] | binding result [2, 3]
1 | GGGAUGGAUCCAAGCUUACUGGCAUCUGGAUUUGCGCGUGCCAGAAUAAAGAGUAUAACGUGUGAAUGGGAAGCUUCGAUAGGAAUUCGGAAAAGCUUGUUCAGGAGAUGAAAUU / GCGACUGGUUACCCGGUCGUAAAAUUUCAUCUCCUGAACAAGCUU [Cy5-CD44-EpCAM aptamer] | binds | binds | – | –
2 | GGAUCCCGACUGGCGAGAGCCAGGUAACGAAUGGAUCC [MG aptamer (malachite green control)] | – | – | no binding | no binding
